Data: paper PMC11265398
Results are given in words; binding and its absence hold for the method and conditions named. In cells and extracts the contact can be indirect. Some binding calls cover weakened binding; strength is not graded here. For part of these data: Sequences can lack the tags named with a protein.

The chains behind the UniProt entries cited, without tags or fusion partners. Where a name states a change or a piece, a line headed by the entry shows the natural chain unless it says otherwise.
UniProt P03204: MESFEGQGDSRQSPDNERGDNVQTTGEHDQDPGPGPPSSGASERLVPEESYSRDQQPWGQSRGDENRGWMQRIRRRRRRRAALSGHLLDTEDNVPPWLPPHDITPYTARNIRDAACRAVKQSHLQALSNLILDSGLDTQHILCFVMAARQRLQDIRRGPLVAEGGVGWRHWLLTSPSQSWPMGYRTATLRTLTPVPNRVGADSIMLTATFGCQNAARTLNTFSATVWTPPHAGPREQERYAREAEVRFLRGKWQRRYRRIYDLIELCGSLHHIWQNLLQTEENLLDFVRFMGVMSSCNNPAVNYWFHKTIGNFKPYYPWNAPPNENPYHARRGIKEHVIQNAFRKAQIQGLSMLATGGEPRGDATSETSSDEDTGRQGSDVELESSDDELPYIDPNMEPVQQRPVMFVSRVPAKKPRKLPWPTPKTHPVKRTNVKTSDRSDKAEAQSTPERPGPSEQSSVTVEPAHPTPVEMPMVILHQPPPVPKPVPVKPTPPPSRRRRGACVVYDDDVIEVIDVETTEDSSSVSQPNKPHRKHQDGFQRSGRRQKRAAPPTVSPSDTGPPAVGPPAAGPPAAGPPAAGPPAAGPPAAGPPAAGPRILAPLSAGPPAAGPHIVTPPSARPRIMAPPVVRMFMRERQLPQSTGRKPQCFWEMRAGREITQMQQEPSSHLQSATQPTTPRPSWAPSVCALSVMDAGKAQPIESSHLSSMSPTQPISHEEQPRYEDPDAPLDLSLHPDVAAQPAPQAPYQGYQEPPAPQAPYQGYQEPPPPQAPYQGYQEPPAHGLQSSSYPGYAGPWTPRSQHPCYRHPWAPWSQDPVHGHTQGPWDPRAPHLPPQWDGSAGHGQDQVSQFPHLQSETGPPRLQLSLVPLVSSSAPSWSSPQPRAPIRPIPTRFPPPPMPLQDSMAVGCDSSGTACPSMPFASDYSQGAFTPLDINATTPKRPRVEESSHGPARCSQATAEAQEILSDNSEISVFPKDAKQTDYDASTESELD

Columns and labels:
[1] = target: T1, endogenous FBXO11 of B cells (human (endogenous in BJAB7 and LCL1)) (UniProt Q86XK2); test: co-IP; sixty million BJAB, BJAB7 and LCL1 cells lysed; immunoprecipitation with 2 µg anti-FBXO11 antibody; western blot
T1 sequence: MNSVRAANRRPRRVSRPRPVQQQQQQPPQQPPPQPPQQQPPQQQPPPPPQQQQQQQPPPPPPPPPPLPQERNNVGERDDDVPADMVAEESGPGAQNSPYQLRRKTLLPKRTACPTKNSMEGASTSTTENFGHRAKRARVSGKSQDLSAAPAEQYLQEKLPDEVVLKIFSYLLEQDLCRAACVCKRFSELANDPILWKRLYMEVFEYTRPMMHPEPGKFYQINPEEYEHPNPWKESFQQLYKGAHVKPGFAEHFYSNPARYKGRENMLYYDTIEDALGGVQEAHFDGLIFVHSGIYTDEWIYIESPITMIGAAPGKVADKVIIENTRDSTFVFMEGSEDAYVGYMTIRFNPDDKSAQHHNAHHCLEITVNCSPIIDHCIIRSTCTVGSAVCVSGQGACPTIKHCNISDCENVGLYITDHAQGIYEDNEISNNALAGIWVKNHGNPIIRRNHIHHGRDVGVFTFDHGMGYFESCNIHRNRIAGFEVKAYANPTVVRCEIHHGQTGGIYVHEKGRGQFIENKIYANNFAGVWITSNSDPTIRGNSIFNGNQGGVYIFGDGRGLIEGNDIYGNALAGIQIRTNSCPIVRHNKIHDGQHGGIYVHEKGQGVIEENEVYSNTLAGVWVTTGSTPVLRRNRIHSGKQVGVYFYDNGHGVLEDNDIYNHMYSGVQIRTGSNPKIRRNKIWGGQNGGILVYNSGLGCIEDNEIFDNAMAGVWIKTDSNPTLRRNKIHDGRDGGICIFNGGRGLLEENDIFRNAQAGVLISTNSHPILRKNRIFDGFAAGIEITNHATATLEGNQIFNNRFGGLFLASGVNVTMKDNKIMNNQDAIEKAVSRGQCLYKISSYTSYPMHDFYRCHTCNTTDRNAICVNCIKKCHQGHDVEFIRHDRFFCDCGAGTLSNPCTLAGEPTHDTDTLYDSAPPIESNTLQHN

[2] = target: T2, Flag-tagged full-length FBXO11 (UniProt Q86XK2); test: co-IP; ten million Saos-2 cells co-transfected with Flag-FBXO11 and Myc-EBNA3C (full length or truncations); lysed 48 hours post-transfection; immunoprecipitation with 2 µg anti-Flag antibody; western blot with antibodies against Flag and Myc
T2 sequence: T1 sequence

| Substance | binding [1] | binding [2] |
| --- | --- | --- |
| EBNA3C of EBV-transformed LCL1 cells (from UniProt P03204 1-992) | binds | – |
| EBNA3C stably expressed in BJAB7 cells (from UniProt P03204 1-992) | binds | – |
| Myc-tagged EBNA3C (1-200 aa) (from UniProt P03204 1-200) (domain or fragment) | – | binds |
| Myc-tagged EBNA3C (1-365 aa) (from UniProt P03204 1-365) (domain or fragment) | – | binds |
| Myc-tagged EBNA3C (50-365 aa) (from UniProt P03204 50-365) (domain or fragment) | – | binds |
| Myc-tagged full-length EBNA3C (1-992 aa) (from UniProt P03204 1-992) | – | binds |
